Measured values reported in publication PMC10216065.
No constants are given. Whether binding was seen depends on the method and setting.

Biological target: E. coli SufE (E. coli) (UniProt P76194)
Experiment: cross-linking; disulfide-linked species without H2O2; SDS-PAGE under reducing (+DTT) and non-reducing (-DTT) conditions; both purified

B1: E. coli SufE (protein, UniProt P76194 1-138)
chain: MALLPDKEKLLRNFLRCANWEEKYLYIIELGQRLPELRDEDRSPQNSIQGCQSQVWIVMRQNAQGIIELQGDSDAAIVKGLIAVVFILYDQMTPQDIVNFDVRPWFEKMALTQHLTPSRSQGLEAMIRAIRAKAAALS
binding: no binding (condition: without H2O2)
